Data on 18 molecules can be found in publication PMC10163288.

This is one part of the list.

The labels stand for the following.
B1: il2ra_site1_3nfp_sap_20_mot_1cd86ef9f1587ae5d14d35bbbd8e7f1d_0001_1_000000087_0001_34_49_H_._HHH_b1_07471_0001_0000400010_0000001_0_0001 (protein)
chain: SSSSDAMEFMEEMIERAFENNDRLQLRALIKILKRAAEQYGDPEVRELLKQAEELLEELNSSSSS
B2: il2ra_site2_2erj_normal_mot_64bd02d26d05ce9f1a62b616cea0b888_0001_af2_000000020_0001_36_49_H_._HHH_b2_03060_0001_0000400019_0000001_0 (protein)
chain: SSSDRELTEFVLRVVYELLTEFNLSLEQMEELFELAEELLRRGVSEEEIEELLRELAEELSSSSS
B3: il2ra_site1_3nfp_sap_20_mot_HHH_b1_07180_af2_000000260_0001_1_19_H_._HHH_b1_03095_af2_0001_0000100004_0000001_0_0001 (protein)
chain: SSSSDHLERVVEELVEELGLTRHAQKALERAVEQLKEMGISEEEAEKALRDAARMFAEIVSSSSS
B4: il2ra_site1_3nfp_sap_17_mot_0eddeacbb14b769e73e254714f31e2f9_0001_af2_000000052_0001_37_51_H_._7093d3a5e4329be201a559e39cb9bd18_0001_0001_0000800048_0000001_0_0 … (protein)
chain: SSSDEAKELAEEAIEELERLIKEGDVRAVAETIRRIAKELLELNDPEALELLQREVRKLLRSSSS
B5: il2ra_site1_2b5i_sap_14_mot_HHH_b1_08243_000000135_0001_1_19_H_._HHH_b1_06522_0001_0000100006_0000001_0_0001_af2pred_dldesign_0_af2pred (protein)
chain: SSSSSLVRETIERVEELLKAGKTEEAKEVVDELEKIAKEKKNPSLLRTVKFLKEAIKDAEESSSS
B6: il2ra_site1_2b5i_sap_18_mot_HHH_b2_08121_af2_000000082_0001_40_52_H_._HHH_b1_08546_af2_0001_0000100001_0000001_1_0001 (protein)
chain: SSSSDEAVEEVDELFRRASRLFRSGNPEEARELIEEAQEIAERNNDESARRDLERFLELLRSSSS
B7: il2ra_site2_3nfp_normal_mot_HHH_b2_05132_000000098_0001_38_52_H_._HHH_b2_07492_0001_0000400049_0000001_0 (protein)
chain: SSSSDVEERVRELLEQAEELREEGNPEEVLRLLAEATHLALENNDFEAYALIAEVTLKLQQSSSS
B8: il2ra_site2_2erj_normal_mot_HHH_b1_07584_000000201_0001_42_55_H_._HHH_b1_00265_af2_0001_0000300007_0000001_0 (protein)
chain: SSSSDEEEEALELVARAIELAHNGNPEEARRLLEELAKLLEELGNETLLRYVELALRHIRGSSSS
B9: il2ra_site2_3nfp_sap_18_mot_HHH_b2_08245_000000023_0001_41_55_H_._HHH_b2_08322_0001_0001000045_0000001_0_0001 (protein)
chain: SSSSDDAEEHLRAALELLREALEEGDEELFRKIAEMIEKAAEDAKDEEVLEEVRRLLEEFDSSSS
B10: il2ra_site2_2erj_sap_27_mot_HHH_b2_03845_000000122_0001_43_56_H_._HHH_b2_05868_0001_0000100002_0000001_0_0001_af2pred_0001_1_af2pred_swapped (protein)
chain: SSSSSSDLEEEVEELLEEAKHIEDPKRANQVLVQAALLARRLGDQELEEAVLRVDEETSSSSSSS
B11: il2ra_site1_2b5i_normal_mot_HHH_b1_01495_af2_000000272_0001_42_56_H_._HHH_b2_06315_0001_0000400031_0000001_0_af2pred_dldesign_0_af2pred (protein)
chain: SSSSSEKYDRLYDLFEEALRLHKAGKKEEALKVLEEAIKLAKELGDEKLVKELEYLKSLLSSSSS
B12: il2ra_site2_2erj_sap_25_mot_HHH_b2_03387_af2_000000185_0001_39_52_H_._5b296406b44771ef4663aad1364b3660_0001_0001_0000200006_0000001_0_0001_af2pred_0001_1_af2pre … (protein)
chain: SLAESVALWVRLAAKLLGIPSVEVSVENGTLHVTVEGNDELAKRIRAAAELAAEANNITVEVEHE
B13: il2ra_site2_3nfp_normal_mot_HHH_b2_07840_000000026_0001_18_34_H_._HHH_b1_02230_af2_0001_0000200005_0000001_0 (protein)
chain: SSSSSDEEVEELLEEIRRLLEEGDDEQARELIHRASLLIAELRNHELFAIISDLLLLVASSSSSS
B14: il2ra_site2_3nfp_normal_mot_HHH_b2_05281_000000198_0001_39_56_H_._HHH_b2_00233_0001_0000200021_0000001_0 (protein)
chain: SSSSSDEIEEEVRELLEEAEKITDPRELERVLARALRLAYEARDSELFYLVAEVAFKLASSSSSS
B15: il2ra_site2_2erj_sap_19_mot_188d01929fb044e3cb8d3ddba1fb93a8_0001_1_000000115_0001_1_15_H_._HHH_b1_02810_0001_0000400004_0000001_1_0001 (protein)
chain: SSSSSDREEAWERVAELLAQALEATDPEEHRELLEEAKELAEEYNDPFLQRYIEYVEESHSSSSS
B16: il2ra_site2_2erj_sap_21_mot_HHH_b1_05650_000000005_0001_42_56_H_._HHH_b1_05129_0001_0000500029_0000001_0_0001 (protein)
chain: SSSSSEEIRRLYELLVEILRALFEGDEELVEELLEEAEKLARELDSENVKEALELLEKRLHSSSS
B17: il2ra_site1_3nfp_sap_14_mot_d9cc8bee132a485d0ac603caa35b40b0_0001_000000001_0001_14_29_H_._HHH_b1_03760_0001_0000500006_0000001_0_0001_af2pred_0001_af2pred_swap … (protein)
chain: SSSSDDEVYKRVHELLEEALRLAFNGNPEEAREVLEEAKELAEELNDPFLRRAVEKFERTSSSSS
B18: il2ra_site1_3nfp_normal_mot_eb5a5eebac1e5153f932cc6c3f4b2787_0001_af2_000000100_0001_18_33_H_._HHH_b2_06718_0001_0000400018_0000001_0_af2pred_0001_af2pred_swapp … (protein)
chain: SSSSSDVEEEVRELLEEAEQISDPREAQELLREARKLARERNDPELRRLVEEVLRKLAKSSSSSS

The experiment has as its target il2ra, P01589. Put plainly: yeast display titration.
With B1, the “apparent Kd” value was “inactive: no binding seen”. On to B2, for which the “apparent Kd” value was “inactive: no binding seen”. For B3, the “apparent Kd” value is “inactive: no binding seen”. The result for B4 reads “inactive: no binding seen”. The result for B5 reads “inactive: no binding seen”; that for B6, “inactive: no binding seen”. The result for B7 reads “inactive: no binding seen”; that for B8, “inactive: no binding seen”; that for B9, “inactive: no binding seen”.

For the molecule B10, the “apparent Kd” value is “inactive: no binding seen”. Consider B11, for which the “apparent Kd” value was “inactive: no binding seen”.

In the case of B12, the “apparent Kd” value is “inactive: no binding seen”. Turning to B13, the “apparent Kd” value was “inactive: no binding seen”. Turning to B14, the “apparent Kd” value is “inactive: no binding seen”. The result for B15 reads “inactive: no binding seen”.

With B16, the “apparent Kd” value was “inactive: no binding seen”.

For B17, the “apparent Kd” value is “inactive: no binding seen”. For the molecule B18, the “apparent Kd” value is “inactive: no binding seen”.
